Source: the supplement of paper PMC3334620
The full ranking holds about 33,000 sequences; the median of “E-score (-0.5 to 0.5)” is about -8e-05, and the highest 2% start at about 0.23. Some of the results follow.

Target: T1, Nrg2 (UniProt P38082)
T1 sequence: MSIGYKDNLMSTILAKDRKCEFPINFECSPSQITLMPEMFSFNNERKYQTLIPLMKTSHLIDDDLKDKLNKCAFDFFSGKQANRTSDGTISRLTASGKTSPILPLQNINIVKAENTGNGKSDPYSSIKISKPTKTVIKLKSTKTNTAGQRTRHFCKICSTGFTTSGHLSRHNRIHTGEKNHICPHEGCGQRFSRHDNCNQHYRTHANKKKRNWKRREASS
Test: PBM E-score (8-mer binding enrichment) (E-score (-0.5 to 0.5)); higher = stronger / more preferred TF binding
Settings: protein concentration: 100 nM; construct: GST-full length
Summary of the method: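 PURExpress in vitro transcription/translation supplied GST-tagged yeast transcription factors, either full-length or DNA-binding domain. Applied at about 100-200 nM to universal all-10-mer Agilent arrays double-stranded by primer extension, the bound protein was detected with fluorescent anti-GST. E-scores, modified Wilcoxon-Mann-Whitney statistics, were given by the Universal PBM Analysis Suite to ungapped eight-base words pooled with their reverse complements after masliner normalisation.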

Row | Sequence | PBM E-score
1 | GTCATAGA | -0.0155
2 | CCGTGAAG | -0.127
3 | CCGATGGA | -0.145
4 | GAAGACAC | 0.0793
5 | CGTTTAAA | -0.0119
6 | AATGCACG | 0.00138
7 | AGTTTAGC | 0.01
8 | CAGTTTAC | -0.0401
9 | GACCTCGC | -0.0199
10 | ATAACCAA | 0.168
11 | CAAAATCC | 0.1
12 | AAGTCACG | -0.0613
13 | ATAATCCC | 0.24
14 | AGCCACAA | -0.0358
15 | GGATGTGA | 0.0138
16 | GCAACCGA | -0.0106
17 | AAAAATCT | 0.0638
18 | TCTAAGCA | 0.0127
19 | AATAGTGG | -0.0486
20 | GGAATTCC | -0.148
21 | GAACCCGC | -0.0987
22 | AACGAGGA | 0.169
23 | CGGTCGGC | -0.147
24 | AGAGTTAA | -0.0711
25 | AACCCGTG | -0.242

Row | Sequence | PBM E-score
26 | AACTTGCC | 0.0117
27 | CGAAGTTC | 0.0952
28 | GAACTCGA | 0.0868
29 | AGAAAAGA | -0.17
30 | CACCAATG | 0.0207
31 | AGAGTCGG | -0.0437
32 | TCTACGCA | 0.0696
33 | GGTCTTTA | 0.0213
34 | ATGCGAAC | -0.00758
35 | ATCGTTAG | -0.069
36 | AATCGAGA | 0.114
37 | CATTTACG | -0.131
38 | CCGCGCTC | 0.0292
39 | AACCTGCT | -0.00382
40 | AGAATTAG | 0.00217
41 | GTTTGTCA | 0.0556
42 | ATGCCTAC | -0.166
43 | CCTGACTA | 0.172
44 | TGAAGCAA | -0.0714
45 | ATAATCTC | 0.212
46 | ATTGGTAG | 0.0439
47 | ATCCCGAC | 0.0589
48 | AAAAGCAA | 0.019
49 | GGTAAGTA | -0.146
50 | GCCGTAGA | 0.083

Row | Sequence | PBM E-score
51 | ACCGATAC | -0.00076
52 | ACAAGACA | 0.146
53 | AGGGGCAG | -0.00851
54 | AATAGCAA | 0.194
55 | ATTTCGAG | 0.14
56 | ATACGGAG | -0.1
57 | CGTAGTAG | -0.0402
58 | GCTTCTTA | -0.0781
59 | CGTAGCGC | -0.0705
60 | GAATCGCA | 0.0121
61 | ATGCGTTA | -0.0667
62 | GGCGTGTA | -0.0241
63 | ATCGTAAA | -0.0607
64 | GCAACGCA | -0.264
65 | CTGGGTGA | -0.0666
66 | CGGTGTCC | -0.0812
67 | AAGATAAC | 0.0597
68 | TGCCCTAA | -0.156
69 | ACTTTTTA | 0.0398
70 | GCAGCGCC | -0.0682
71 | ACGTAGCT | -0.0827
72 | GCATAAAC | -0.0002
73 | AACATAGT | 0.065
74 | ATAGCTCA | 0.00447
75 | ATCCTGTC | 0.0194

Row | Sequence | PBM E-score
76 | CGGGCCAA | -0.263
77 | CACTAAGA | 0.127
78 | TCAGACGA | 0.119
79 | AAAAAGAC | 0.129
80 | AGCTGATA | 0.00949
81 | AAGAGGAC | -0.0921
82 | CACATCAC | 0.00889
83 | CTAAGTAC | -0.0485
84 | AGAGCAAT | -0.0853
85 | AAGAGCGG | -0.0332
86 | TCACCCGA | 0.0644
87 | CACCTTTC | 0.0109
88 | ATATTTAA | 0.14
89 | GACATTGC | -0.0455
90 | CGGTACTC | -0.185
91 | ATGGTCCC | 0.0828
92 | TACCATCA | -0.169
93 | ATAATAAA | 0.224
94 | CGCTTTGA | 0.0191
95 | AGGGGACC | 0.225
96 | ACTAGTCC | 0.1
97 | GCCTACTA | 0.15
98 | ATTAGTTG | 0.256
99 | CTAATACC | -0.047
100 | AACTCGCG | 0.107

Copied from above: nos. 65–95
Row | Sequence | PBM E-score
65 | CTGGGTGA | -0.0666
66 | CGGTGTCC | -0.0812
67 | AAGATAAC | 0.0597
68 | TGCCCTAA | -0.156
69 | ACTTTTTA | 0.0398
70 | GCAGCGCC | -0.0682
71 | ACGTAGCT | -0.0827
72 | GCATAAAC | -0.0002
73 | AACATAGT | 0.065
74 | ATAGCTCA | 0.00447
75 | ATCCTGTC | 0.0194
76 | CGGGCCAA | -0.263
77 | CACTAAGA | 0.127
78 | TCAGACGA | 0.119
79 | AAAAAGAC | 0.129
80 | AGCTGATA | 0.00949
81 | AAGAGGAC | -0.0921
82 | CACATCAC | 0.00889
83 | CTAAGTAC | -0.0485
84 | AGAGCAAT | -0.0853
85 | AAGAGCGG | -0.0332
86 | TCACCCGA | 0.0644
87 | CACCTTTC | 0.0109
88 | ATATTTAA | 0.14
89 | GACATTGC | -0.0455
90 | CGGTACTC | -0.185
91 | ATGGTCCC | 0.0828
92 | TACCATCA | -0.169
93 | ATAATAAA | 0.224
94 | CGCTTTGA | 0.0191
95 | AGGGGACC | 0.225

(further entries)

Row | Sequence | PBM E-score
101 | GGGTAAGA | -0.276
102 | GCGCAAGC | -0.0668
103 | ACACCAGC | -0.121
104 | ACGCTTAA | -0.0464
105 | TAGACTCA | -0.169
106 | ACTCGGTC | 0.0193
107 | CACAGCAA | 0.162
108 | ACTGCTAT | 0.0878
109 | GTCCCCGA | 0.104
110 | CGACTCAA | 0.062
111 | CGACGTAA | -0.0403
112 | ACCGGTAT | 0.0481
113 | AATGGCGC | 0.0453
114 | AAGGTGGA | -0.0569
115 | CGGTAAAC | -0.0982
116 | ATGCCAAA | -0.0611
117 | CGATTACA | -0.0482
118 | AGACATCG | -0.103
119 | ATCCTGAA | 0.125
120 | ACTCACCT | -0.109
121 | AAAGAGCA | 0.0706
122 | ACAGAGTC | 0.0468
123 | GTTACCAA | 0.109
124 | CGGGACAG | 0.0943
125 | AGCGCCAA | -0.18

Row | Sequence | PBM E-score
126 | GAGTTTCC | -0.216
127 | GTTGCTCA | 0.1
128 | CGGACAGC | 0.06
129 | CCGAGAGA | 0.0866
130 | AGTTATAT | 0.192
131 | AACTCATA | 0.0735
132 | ACGCGCGA | 0.209
133 | GTACGAAA | 0.0842
134 | GAACTATA | 0.147
135 | ACTCTAGG | -0.0983
136 | AGGGCCTG | -0.00651
137 | ATTGCCTG | 0.0693
138 | GAACATTA | 0.118
139 | CACGGATG | -0.149
140 | AACTGATG | 0.0302
141 | CCATCACA | 0.00485
142 | AAGCGCCC | 0.0375
143 | AAAGGGTA | 0.152
144 | CAAGGGGA | 0.127
145 | CGAGTCTA | -0.233
146 | TCAAATCA | -0.0452
147 | AAAAACCT | 0.186
148 | CTGCCCGA | -0.0222
149 | AAATCGGC | 0.00041
150 | CGGTGACC | -0.219

Row | Sequence | PBM E-score
151 | AGCAACCA | 0.179
152 | AGTATTAG | 0.273
153 | CAATGTCC | -0.0878
154 | CCATATTC | 0.00369
155 | ATCAGCCC | -0.0267
156 | ACCTTCGG | -0.034
157 | CTCGGCGA | 0.0899
158 | AAAGGAAA | 0.0754
159 | ATGTAACA | 0.128
160 | GTGTTTCA | -0.246
161 | AGGAAGGC | -0.222
162 | GCTATAAC | -0.169
163 | GCCTGAAC | -0.211
164 | CTTCAGAA | 0.0224
165 | CCCTACGC | -0.0978
166 | CCCCACCC | 0.162
167 | GGGCCACC | -0.0295
168 | AAATCTAA | 0.00125
169 | AGTTTTGA | 0.0128
170 | ACTCCAAC | 0.116
171 | GCAGCAAA | 0.0947
172 | ACTCTAAT | 0.168
